Source: patent EP4778522A1, “USE OF PYRROLOPYRIMIDINE COMPOUND AND COMPOSITION THEREOF” (Guangzhou Joyo Pharmatech Co., Ltd., priority 2023, dated 2025)
At least one structure is not confirmed: it was looked up by name or label, or the drawing left a doubt.

Test system: monobenzone-induced mouse vitiligo model
Assay: Monobenzone-induced mouse vitiligo model: skin pathological analysis of melanin-containing hair follicles
Assay type: in vivo, C57BL/6 mice
Conditions: 1.5% ruxolitinib ointment
Method: The mice were euthanized within 2-4 hours after the last administration, and approximately 1 cm^2 of the skin in the center of the depilated part of the mice was taken and fixed with 4% paraformaldehyde. The animal skin tissues were fixed with 4% paraformaldehyde, dehydrated, embedded with paraffin, sectioned and then subjected to HE staining. The stained sections were photographed by white light panoramic scanning, histopathological changes of the skin tissues and inflammatory cell infiltration were observed, and the number of melanin-containing hair follicles and/or the proportion of the melanin-containing hair follicles in the skin were quantitatively analyzed. The panoramic scanning files were opened by using CaseViewer software, a picture view with the length of about 3.8 mm was randomly selected, and the pictures were saved. The number of all the hair follicles and the number of the melanin-containing hair follicles in the picture were counted respectively by using ipwin32 software. The proportion of the melanin-containing hair follicles was calculated according to the following formula: Proportion of melanin-containing hair follicles = number of melanin-containing follicles/number of all follicles

N#CC[C@H](C1CCCC1)n1cc(-c2ncnc3[nH]ccc23)cn1 [ruxolitinib, reference compound]
proportion of the melanin-containing hair follicles relative to the model control group: about twice
